Publication PMC4575180 (2015)
Results are given in words; binding and its absence hold for the method and conditions named. Some binding calls cover weakened binding; strength is not graded here. For part of these data: Tags and fused reporters may be left off the sequences shown.

By UniProt entry, the sequences of proteins in these tests, tags left out.
UniProt Q08850: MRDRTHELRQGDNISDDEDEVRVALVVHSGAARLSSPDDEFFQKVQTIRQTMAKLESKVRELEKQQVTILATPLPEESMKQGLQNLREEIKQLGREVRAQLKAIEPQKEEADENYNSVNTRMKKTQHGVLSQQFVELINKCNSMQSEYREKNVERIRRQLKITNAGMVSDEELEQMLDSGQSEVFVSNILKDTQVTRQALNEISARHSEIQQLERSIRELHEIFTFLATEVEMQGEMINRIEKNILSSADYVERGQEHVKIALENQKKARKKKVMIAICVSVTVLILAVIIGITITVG
UniProt P70452: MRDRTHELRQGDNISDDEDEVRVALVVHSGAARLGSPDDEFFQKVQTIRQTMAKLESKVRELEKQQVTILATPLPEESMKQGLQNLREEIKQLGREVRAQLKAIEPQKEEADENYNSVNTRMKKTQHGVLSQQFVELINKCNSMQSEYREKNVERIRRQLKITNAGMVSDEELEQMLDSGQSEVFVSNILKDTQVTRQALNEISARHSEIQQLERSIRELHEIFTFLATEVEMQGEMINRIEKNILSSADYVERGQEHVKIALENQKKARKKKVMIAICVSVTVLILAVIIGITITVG

T1: His6-SNAP-23 (UniProt O09044)
T1 sequence: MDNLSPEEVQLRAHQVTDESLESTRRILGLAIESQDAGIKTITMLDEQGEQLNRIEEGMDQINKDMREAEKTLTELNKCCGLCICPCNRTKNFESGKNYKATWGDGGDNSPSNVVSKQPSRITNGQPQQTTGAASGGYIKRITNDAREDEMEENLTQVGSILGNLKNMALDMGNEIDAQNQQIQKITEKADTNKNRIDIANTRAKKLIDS

T2: syntaxin3 (Rattus norvegicus (Rat), UniProt Q08849)
T2 chain: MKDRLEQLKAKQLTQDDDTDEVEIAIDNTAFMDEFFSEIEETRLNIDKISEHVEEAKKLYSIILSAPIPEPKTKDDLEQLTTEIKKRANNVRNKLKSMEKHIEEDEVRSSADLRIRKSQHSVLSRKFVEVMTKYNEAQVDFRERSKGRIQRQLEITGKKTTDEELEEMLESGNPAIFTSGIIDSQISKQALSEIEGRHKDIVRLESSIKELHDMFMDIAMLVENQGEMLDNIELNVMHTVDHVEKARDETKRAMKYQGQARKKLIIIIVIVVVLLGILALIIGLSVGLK


Experiments:
[1] = target: T1, His6-SNAP-23; test: co-purification on Ni-NTA after co-expression; untagged syntaxin4 co-expressed with His6-SNAP-23 in E. coli BL21(DE3); lysate with beta-OG on Ni-NTA resin, Buffer B (25mM HEPES-KOH pH 7.5, 0.4M KCl, 10% glycerol, 20mM imidazole), 4°C, eluted with 200mM imidazole
[2] = target: T2, syntaxin3; test: pull-down; membrane-anchored full-length syntaxins with Munc18b or Munc18c (S4C Fig); bait and conditions not shown; both purified
[3] = target: syntaxin4 (rat) (UniProt Q08850); test: as above

binding [1]	binding [2]	binding [3]	Molecule
binds			untagged syntaxin4 (from UniProt P70452 1-298)
	binds	binds	Munc18b (protein, UniProt Q62753 1-594) MAPLGLKAVVVEKILSGVIRSVKKDGEWKVLIMDHPSMRILSSCCKMSDILAEGITIVEDINKRREPIPSLEAIYLLSPTEKSVQALIADFQGTPTFTYKAAHIFFTDTCPEPLFSELGRSRLAKVVKTLKEIHLAFLPYEAQVFSLDAPHSTYNLYCPFRAGERGRQLDVLAQQIATLCATLQEYPSIRYRKGPEDTAQLAHAVLAKLNAFKADTPSLGEGPEKTRSQLLIMDRAADPVSPLLHELTFQAMAYDLLHIEQDTYRYETTGLSESREKAVLLDEDDDLWVELRHMHIADVSKKVTELLKTFCESKRLTTDKANIKDLSHILKKMPQYQKELNKYSTHLHLADDCMKHFKGSVEKLCGVEQDLAMGSDAEGEKIKDTMKLIVPVLLDASVPPYDKIRVLLLYILLRNGVSEENLAKLIQHANVQSYSNLIRNLEQLGGTVTNSAGSGTSSRLERRERMEPTYQLSRWSPVIKDVMEDVVEDRLDRKLWPFVSDPAPVSSSQAAVSSARFGHWHKNKAGIEARAGPRLIVYIVGGVAMSEMRAAYEVTRATEGKWEVLIGSSHILTPTRFLDDLRTLDQKLEDIALP
